Measured values published in article PMC6025110.

By UniProt entry, the sequences of proteins in these tests, tags left out. Residues count along the entry.
UniProt Q14667, residues 32-2235: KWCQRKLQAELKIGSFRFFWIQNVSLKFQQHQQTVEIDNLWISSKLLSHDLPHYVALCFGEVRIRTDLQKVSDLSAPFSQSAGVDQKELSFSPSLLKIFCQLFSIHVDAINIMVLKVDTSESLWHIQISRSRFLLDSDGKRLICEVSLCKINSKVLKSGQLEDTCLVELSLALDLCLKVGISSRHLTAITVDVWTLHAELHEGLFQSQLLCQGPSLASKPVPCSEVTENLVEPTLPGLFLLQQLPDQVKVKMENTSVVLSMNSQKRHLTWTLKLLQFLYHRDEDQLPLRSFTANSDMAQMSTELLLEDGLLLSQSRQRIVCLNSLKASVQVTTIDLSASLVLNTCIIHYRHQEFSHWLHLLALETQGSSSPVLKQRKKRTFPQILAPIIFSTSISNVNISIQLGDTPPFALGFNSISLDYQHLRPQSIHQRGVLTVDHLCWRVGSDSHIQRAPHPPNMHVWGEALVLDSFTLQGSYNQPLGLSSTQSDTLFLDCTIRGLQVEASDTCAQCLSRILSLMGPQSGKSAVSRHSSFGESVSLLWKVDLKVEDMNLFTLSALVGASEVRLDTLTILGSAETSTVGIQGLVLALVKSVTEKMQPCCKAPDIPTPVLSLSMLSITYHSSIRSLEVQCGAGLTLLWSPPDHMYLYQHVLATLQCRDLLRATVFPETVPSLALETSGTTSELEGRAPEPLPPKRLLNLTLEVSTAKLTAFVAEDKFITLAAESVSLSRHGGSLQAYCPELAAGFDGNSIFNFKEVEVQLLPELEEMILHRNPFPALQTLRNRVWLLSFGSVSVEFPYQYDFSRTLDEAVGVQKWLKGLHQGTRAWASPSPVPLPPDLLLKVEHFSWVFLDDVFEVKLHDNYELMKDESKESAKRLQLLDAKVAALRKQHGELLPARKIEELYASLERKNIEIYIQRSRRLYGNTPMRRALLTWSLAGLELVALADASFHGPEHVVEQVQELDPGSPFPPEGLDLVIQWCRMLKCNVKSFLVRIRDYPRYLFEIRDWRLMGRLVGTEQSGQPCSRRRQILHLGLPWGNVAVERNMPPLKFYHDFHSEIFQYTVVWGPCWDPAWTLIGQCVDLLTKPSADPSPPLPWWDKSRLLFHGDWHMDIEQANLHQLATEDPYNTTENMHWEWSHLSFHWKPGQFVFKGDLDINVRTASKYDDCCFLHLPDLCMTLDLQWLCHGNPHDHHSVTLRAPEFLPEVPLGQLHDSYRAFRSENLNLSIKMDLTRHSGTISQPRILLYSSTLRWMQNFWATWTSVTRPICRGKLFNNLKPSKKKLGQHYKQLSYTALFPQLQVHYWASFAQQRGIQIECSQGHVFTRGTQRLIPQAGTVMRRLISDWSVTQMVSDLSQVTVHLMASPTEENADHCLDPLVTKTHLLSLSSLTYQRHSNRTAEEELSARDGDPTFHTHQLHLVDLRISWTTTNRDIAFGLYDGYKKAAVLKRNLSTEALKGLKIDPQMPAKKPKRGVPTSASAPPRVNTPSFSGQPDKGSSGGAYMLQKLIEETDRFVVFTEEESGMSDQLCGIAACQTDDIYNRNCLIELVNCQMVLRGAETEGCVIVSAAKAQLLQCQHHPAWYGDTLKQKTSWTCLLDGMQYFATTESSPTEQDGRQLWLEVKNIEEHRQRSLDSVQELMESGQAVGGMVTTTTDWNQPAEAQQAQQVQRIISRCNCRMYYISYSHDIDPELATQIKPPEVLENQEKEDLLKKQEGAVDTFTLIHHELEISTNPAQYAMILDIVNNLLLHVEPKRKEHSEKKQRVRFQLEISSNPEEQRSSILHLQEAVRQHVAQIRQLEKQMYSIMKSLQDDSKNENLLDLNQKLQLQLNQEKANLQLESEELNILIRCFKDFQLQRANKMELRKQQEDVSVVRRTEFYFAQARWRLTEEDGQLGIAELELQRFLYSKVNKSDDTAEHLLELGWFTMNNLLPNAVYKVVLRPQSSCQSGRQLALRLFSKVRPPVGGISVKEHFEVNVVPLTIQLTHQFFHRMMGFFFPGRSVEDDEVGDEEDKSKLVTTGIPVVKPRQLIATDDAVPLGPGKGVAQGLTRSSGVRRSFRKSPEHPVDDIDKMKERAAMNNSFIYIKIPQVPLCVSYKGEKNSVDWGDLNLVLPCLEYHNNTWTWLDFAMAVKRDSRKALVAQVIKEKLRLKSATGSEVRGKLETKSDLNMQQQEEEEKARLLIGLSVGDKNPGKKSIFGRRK
UniProt P0DMV8: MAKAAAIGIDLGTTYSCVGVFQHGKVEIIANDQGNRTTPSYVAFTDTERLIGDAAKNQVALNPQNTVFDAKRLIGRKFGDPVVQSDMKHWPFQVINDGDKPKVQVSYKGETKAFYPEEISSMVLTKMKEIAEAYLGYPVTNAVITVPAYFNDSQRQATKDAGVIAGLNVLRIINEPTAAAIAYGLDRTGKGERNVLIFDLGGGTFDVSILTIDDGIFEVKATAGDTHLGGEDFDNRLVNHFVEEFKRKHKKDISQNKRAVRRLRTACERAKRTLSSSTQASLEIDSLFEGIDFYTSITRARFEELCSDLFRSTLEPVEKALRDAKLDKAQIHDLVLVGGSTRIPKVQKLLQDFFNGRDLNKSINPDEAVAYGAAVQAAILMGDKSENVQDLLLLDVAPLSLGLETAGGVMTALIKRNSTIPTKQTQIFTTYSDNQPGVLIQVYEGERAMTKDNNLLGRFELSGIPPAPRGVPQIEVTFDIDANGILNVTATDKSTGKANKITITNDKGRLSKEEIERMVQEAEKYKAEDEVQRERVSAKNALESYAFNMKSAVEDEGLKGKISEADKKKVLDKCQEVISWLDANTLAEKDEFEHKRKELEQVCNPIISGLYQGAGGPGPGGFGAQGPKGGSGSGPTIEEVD

Biological target: recombinant KIAA0100 protein with FLAG and Myc tags on its C-terminus (human) (UniProt Q14667)
Experiment: affinity purification with mass spectrometry; HEK293/pKIA cells cross-linked with DTBP, lysed; recombinant KIAA0100 captured by anti-FLAG antibody; SDS-PAGE, coomassie, six gel slices (S1-S6) analysed by mass spectrometry; controls anti-DIG isotype antibody and bare beads

Substance: HSPA1A (from UniProt P0DMV8 1-641)
- binding: binds

These are yes or no findings as the source states them, for the method shown. In cells and extracts the contact can be indirect. A yes stands for co-enrichment or nearness to the bait. Other partners may have been found.
